System: endothelium (CD31/PECAM-1) of granulation tissue
Experiment: Microvessel density of granulation tissue surrounding the silicone patch (CD31 immunostaining, image analysis)
Type: in vivo, mice (C57BL/6)
Details: day 10; CD31-stained area as proportion of total area; mean ± SEM; control 6.4±0.6
Experimental: Silicone patches and abdominal wall were fixed at 4 degrees Celsius in 10% formalin overnight and washed with phosphate buffered saline. The specimens were then embedded in paraffin and 5 micron sections were cut. Endothelial cells were identified by antibody staining against the endothelial cell surface antigen CD31 (PECAM-1) and a diaminobenzidine chromogen (BD Biosciences Pharmingen, San Diego, Calif.). After deparaffinization and rehydration, sections were incubated with proteinase K (Roche, Basel, Switzerland) for 30 min at 37° C. Non-specific binding sites were blocked for 30 min at room temperature with TNB blocking buffer (NEN Life Sciences, Boston, Mass.). Primary CD31 antiserum (Pharmingen) was added to the sections overnight at 4° C. […]
Sections were taken from the abdominal wall, patch, and lesions at sacrifice on day 10. To quantitate vessel density, CD31 immunostained sections underwent digital image analysis using a Nikon Eclipse TE300 inverting photomicroscope with an attached Spot RT (Diagnostic Instruments Inc.) video camera linked to a personal computer. […] The proportion of the selected color was calculated as a percentage of total area and used as a measure of vessel density. Sections from 3 different mice for each of the study groups were examined and vascularization was scanned and quantified in 5 representative fields per section.

COc1ccc2cc([C@H](C)C(=O)O)ccc2c1 [naproxen]
microvessel density of granulation tissue surrounding the silicone patch: 11.4±1.2
